Values of other authors as cited in US12576069B2, “Compositions and methods for treating slow-flow vascular malformations” (YALE UNIVERSITY, priority 2019, dated 2026).

Conditions: cited from earlier work

Compound: CO[C@H]1C[C@@H]2CC[C@@H](C)[C@@](O)(O2)C(=O)C(=O)N2CCCC[C@H]2C(=O)O[C@H]([C@H](C)C[C@@H]2CC[C@@H](O)[C@H](OC)C2)CC(=O)[C@H](C)/C=C(\C)[C@@H](O)[C@@H](OC)C(=O)[C@H](C)C[C@H](C)/C=C/C=C/C=C/1C [rapamycin]
- solubility in water: insoluble in water
